These are yes or no findings as the source states them, for the method shown. In cells and extracts the contact can be indirect.
Biological target: ferritin heavy chain 1 (FTH1) (human (endogenous in FARAGE and SUDHL8)) (UniProt P02794)
Experiment: co-IP; coimmunoprecipitation of SH3GL1 and FTH1 in FARAGE and SUDHL8 cells; which protein was precipitated is not told

Protein sequences, listed by entry. Tags and fused reporters are not part of them.
UniProt Q99961: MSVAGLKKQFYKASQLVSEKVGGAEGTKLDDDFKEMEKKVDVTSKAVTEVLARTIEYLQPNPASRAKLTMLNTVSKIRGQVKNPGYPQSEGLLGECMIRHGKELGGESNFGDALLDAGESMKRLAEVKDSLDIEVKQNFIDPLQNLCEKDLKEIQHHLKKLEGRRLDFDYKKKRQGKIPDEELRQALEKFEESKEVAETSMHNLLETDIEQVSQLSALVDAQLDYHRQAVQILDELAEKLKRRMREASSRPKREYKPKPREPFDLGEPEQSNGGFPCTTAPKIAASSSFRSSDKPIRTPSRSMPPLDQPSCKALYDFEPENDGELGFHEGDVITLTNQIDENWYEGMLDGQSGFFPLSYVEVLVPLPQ

Substance: SH3GL1 (endophilin A2) (from UniProt Q99961 1-368)
- binding: no binding
